Results on one molecule are retold here after patent US20220074937A1.

Results are given in words; binding and its absence hold for the method and conditions named.

The target in experiment [1] is BCMA CAR on the cell surface (BCMA CAR-T cells). Description: flow cytometry on BCMA CAR-T cells. In general terms: A flow cytometer gives signals particle by particle.
Experiment [2] has the same target. Description: flow cytometry on BCMA CAR-T cells, goat anti-rabbit IgG-Alexa Fluor 488.

B1: rabbit monoclonal antibody R19mab against FMC63 scFv (antibody, V domains shown)
VH: QSLEESGGRLVTPGTPLTLTCTVSGIDFRNYGVSWVRQAPGKGLEWIGIFSSSGSTYYATWAKGRFTISKASSTTVDLKMTSLTTEDTATYFCARHPGPTNGWKLWGPGTLVTVSS
VL: DVVMTQTPASVEAPVGGTVTIKCQASQSVSGYCSWYQQKPGQPPKLLIYRASTLESGVPSRFSGSGSGTDFTLTISDLECADAATYYCQSNYNSGSSSSAAAFGGGTEVVVK
For the molecule B1, the binding entry in experiment [1] and in experiment [2] was “no binding” in each case.
